Results from publication PMC10698503, “Phosphatase specificity principles uncovered by MRBLE:Dephos and global substrate identification” (Molecular Systems Biology, 2023).
Results are given in words; binding and its absence hold for the method and conditions named. In cells and extracts the contact can be indirect. Here binding means that the protein was enriched with, or labelled near, the bait; the list need not be complete.

Chains of the proteins cited; added tags and fusions are not shown.
UniProt P63151: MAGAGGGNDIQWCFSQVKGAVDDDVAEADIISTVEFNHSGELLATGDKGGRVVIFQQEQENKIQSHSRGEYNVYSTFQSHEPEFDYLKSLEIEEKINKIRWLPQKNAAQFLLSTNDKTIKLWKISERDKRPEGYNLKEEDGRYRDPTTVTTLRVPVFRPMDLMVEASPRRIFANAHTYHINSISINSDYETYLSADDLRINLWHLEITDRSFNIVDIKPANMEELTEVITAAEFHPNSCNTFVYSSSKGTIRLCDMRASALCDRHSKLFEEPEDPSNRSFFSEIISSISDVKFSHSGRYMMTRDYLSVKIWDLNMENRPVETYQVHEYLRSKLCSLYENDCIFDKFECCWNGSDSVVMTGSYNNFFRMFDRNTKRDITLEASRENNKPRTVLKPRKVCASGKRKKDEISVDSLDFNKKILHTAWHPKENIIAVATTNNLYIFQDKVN
UniProt P49790: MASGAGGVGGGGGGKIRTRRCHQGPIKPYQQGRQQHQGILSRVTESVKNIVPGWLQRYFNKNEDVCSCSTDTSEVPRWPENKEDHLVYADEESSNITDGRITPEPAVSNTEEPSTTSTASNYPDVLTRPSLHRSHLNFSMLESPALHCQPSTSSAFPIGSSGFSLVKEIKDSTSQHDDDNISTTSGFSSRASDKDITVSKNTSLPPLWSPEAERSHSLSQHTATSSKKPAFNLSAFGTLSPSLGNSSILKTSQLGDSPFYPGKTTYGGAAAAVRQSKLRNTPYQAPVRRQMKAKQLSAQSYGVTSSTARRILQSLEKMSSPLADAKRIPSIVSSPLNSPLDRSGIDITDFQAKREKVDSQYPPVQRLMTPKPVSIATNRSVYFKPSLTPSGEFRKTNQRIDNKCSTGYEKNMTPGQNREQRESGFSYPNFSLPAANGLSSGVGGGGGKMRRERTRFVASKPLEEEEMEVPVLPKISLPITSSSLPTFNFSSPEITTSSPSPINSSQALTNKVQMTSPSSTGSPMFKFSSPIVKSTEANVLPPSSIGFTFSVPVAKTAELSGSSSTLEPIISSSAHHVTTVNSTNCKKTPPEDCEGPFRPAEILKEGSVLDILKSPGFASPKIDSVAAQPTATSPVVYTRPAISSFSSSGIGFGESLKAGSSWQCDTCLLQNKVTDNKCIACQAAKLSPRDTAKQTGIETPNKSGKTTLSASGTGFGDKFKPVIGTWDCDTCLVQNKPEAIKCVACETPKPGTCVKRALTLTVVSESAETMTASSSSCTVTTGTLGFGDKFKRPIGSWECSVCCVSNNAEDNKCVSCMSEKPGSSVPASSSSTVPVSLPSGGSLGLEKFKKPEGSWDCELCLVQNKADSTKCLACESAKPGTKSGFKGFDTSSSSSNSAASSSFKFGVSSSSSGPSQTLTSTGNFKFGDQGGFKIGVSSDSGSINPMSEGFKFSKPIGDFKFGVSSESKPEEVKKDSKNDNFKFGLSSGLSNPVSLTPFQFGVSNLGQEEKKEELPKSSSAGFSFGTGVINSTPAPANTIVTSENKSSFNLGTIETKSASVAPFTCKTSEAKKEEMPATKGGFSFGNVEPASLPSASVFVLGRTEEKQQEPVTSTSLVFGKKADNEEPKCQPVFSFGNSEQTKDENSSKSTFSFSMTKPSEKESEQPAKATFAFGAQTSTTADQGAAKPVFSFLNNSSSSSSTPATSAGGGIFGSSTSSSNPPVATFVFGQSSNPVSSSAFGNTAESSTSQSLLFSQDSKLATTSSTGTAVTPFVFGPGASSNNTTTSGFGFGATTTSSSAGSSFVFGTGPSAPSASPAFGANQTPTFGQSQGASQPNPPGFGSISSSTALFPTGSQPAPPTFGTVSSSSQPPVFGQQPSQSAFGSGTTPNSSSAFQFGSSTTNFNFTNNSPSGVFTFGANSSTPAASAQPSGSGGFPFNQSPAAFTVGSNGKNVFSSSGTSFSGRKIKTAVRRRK
UniProt P12270: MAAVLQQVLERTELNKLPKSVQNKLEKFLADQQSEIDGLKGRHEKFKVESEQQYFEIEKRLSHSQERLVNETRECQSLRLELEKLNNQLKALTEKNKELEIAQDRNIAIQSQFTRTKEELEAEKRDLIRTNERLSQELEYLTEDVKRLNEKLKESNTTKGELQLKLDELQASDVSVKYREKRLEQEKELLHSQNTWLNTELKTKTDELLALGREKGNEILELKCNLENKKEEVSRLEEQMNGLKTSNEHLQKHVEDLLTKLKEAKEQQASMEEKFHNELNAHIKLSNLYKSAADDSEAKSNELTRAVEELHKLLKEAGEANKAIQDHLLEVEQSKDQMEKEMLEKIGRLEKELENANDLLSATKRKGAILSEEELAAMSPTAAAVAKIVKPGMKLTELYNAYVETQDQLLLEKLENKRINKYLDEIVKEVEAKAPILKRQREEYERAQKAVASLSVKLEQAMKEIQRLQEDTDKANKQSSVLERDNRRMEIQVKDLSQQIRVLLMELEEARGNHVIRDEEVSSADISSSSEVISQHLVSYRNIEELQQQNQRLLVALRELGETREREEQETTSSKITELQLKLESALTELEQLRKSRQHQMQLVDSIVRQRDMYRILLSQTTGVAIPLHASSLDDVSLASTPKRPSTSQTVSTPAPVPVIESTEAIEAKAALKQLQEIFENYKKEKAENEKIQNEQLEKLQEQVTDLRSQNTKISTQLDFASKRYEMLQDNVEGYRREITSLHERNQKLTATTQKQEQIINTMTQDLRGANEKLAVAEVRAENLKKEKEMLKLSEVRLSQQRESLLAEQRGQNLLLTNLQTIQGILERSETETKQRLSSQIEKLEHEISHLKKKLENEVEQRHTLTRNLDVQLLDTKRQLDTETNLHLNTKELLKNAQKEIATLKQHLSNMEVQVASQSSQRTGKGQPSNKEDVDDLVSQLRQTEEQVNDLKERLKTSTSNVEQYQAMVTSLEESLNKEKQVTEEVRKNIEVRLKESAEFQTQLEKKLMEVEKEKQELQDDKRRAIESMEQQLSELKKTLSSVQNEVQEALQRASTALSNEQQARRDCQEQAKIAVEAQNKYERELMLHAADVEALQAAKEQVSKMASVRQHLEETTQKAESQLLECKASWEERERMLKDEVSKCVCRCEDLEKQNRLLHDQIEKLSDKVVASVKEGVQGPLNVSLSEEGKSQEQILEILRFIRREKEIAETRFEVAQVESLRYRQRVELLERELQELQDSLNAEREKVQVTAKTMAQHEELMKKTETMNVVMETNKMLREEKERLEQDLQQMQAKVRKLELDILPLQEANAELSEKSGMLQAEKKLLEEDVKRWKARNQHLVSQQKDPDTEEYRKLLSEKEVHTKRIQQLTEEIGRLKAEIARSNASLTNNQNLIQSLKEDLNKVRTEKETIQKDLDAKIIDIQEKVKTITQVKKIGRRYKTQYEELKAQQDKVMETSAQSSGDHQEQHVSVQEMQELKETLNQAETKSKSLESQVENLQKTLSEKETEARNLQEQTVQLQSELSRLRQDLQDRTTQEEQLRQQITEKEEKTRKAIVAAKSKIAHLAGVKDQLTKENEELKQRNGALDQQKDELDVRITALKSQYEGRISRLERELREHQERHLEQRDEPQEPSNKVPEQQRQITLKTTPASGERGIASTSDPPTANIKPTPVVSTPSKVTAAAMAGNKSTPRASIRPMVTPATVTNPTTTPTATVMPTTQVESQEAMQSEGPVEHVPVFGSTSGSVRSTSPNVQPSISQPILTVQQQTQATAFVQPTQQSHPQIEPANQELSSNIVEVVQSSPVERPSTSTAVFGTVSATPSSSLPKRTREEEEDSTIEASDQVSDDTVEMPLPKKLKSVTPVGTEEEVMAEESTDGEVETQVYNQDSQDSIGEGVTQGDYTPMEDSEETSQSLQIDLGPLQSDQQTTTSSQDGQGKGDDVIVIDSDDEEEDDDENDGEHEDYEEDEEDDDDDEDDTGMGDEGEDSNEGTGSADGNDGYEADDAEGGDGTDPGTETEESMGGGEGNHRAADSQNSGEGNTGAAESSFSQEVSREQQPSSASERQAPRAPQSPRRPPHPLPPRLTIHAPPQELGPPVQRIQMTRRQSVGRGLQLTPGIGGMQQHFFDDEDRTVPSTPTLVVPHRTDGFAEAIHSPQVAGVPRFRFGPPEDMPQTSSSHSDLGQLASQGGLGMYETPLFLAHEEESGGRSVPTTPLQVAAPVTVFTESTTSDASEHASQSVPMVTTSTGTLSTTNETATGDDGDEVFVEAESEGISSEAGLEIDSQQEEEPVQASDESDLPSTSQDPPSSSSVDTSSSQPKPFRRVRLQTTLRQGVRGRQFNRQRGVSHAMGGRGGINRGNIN

Molecular target: B55α, N-terminal fusion to YFP, BioID or TurboID (UniProt P63151)
Assay: affinity purification with mass spectrometry + proximity labelling; YFP-tagged B55α from nocodazole-arrested HeLa lysate on GFP-Trap beads, and BioID/TurboID fusions with biotin in cells; label-free LC-MS/MS; hit: at least twofold enrichment and P < 0.05 against the control

| binding | Substance |
| --- | --- |
| binds | Nup153 (from UniProt P49790 1-1475) |
| binds | TPR (from UniProt P12270 1-2363) |
